## Primary screen of a compound library

Sequences of proteins named here, by UniProt entry; tags and fusion partners are left off.
UniProt P9WPC5, whole entry: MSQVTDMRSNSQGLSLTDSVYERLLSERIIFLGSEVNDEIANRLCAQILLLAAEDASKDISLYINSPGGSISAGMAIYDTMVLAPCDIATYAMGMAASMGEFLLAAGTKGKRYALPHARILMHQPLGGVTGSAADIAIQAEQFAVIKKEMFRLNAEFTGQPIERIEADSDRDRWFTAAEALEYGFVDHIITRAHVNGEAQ
UniProt P9WPC3, whole entry partner: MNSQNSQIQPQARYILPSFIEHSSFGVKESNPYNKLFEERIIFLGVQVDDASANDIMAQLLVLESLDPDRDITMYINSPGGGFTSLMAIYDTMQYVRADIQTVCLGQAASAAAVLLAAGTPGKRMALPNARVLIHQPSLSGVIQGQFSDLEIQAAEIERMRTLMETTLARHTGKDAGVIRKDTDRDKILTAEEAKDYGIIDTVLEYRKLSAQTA
UniProt I6X8D2, whole entry: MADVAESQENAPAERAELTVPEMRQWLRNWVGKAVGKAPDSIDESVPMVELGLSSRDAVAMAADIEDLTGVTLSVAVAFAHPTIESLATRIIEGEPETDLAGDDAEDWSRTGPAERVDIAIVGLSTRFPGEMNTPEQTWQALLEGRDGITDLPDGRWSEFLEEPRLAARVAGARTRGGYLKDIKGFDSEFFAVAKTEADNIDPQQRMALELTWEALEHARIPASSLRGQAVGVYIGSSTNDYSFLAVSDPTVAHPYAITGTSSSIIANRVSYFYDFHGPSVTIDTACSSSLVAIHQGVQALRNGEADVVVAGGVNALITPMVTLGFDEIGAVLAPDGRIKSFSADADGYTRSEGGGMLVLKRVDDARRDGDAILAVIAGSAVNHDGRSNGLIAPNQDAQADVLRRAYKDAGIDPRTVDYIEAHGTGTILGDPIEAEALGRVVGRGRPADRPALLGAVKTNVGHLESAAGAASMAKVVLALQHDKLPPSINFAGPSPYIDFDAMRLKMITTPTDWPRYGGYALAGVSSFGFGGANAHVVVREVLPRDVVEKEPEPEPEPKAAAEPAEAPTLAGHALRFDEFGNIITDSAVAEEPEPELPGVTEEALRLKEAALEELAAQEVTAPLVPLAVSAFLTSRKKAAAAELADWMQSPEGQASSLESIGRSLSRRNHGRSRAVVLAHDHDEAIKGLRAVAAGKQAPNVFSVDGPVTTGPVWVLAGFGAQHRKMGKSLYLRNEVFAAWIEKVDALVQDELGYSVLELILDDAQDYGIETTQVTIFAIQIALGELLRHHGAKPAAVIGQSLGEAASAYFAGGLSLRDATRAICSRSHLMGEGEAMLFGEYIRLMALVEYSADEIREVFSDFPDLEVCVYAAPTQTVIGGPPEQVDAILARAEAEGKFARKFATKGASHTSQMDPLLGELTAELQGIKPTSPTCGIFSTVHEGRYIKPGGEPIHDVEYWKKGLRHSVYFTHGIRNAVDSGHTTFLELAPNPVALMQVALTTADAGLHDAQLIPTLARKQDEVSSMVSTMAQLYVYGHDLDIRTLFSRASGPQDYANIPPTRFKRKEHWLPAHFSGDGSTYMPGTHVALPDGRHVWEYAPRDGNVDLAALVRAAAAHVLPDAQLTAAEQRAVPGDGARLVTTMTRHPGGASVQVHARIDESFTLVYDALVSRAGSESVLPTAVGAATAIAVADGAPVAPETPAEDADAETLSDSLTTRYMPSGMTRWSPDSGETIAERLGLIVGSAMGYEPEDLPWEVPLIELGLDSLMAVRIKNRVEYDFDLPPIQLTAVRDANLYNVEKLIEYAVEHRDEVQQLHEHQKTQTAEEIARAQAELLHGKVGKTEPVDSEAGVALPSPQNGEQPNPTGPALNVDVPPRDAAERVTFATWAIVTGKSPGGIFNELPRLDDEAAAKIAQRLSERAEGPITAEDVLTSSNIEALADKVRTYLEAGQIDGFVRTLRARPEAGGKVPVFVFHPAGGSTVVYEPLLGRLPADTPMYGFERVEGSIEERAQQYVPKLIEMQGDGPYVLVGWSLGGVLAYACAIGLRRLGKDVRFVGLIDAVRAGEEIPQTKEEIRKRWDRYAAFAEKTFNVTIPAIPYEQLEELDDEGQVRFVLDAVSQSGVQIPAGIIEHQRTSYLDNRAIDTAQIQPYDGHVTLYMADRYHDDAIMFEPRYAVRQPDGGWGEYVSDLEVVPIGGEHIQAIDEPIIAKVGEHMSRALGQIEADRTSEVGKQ

Data taken from ChEMBL document CHEMBL3988442, “University of Dundee, Small-Polar-MMV Screening Library” (2021).

Leishmania in macrophages: 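Cell assay of Leishmania donovani living inside macrophages; the read-out is not stated. Concentration: 30 µM. The record gives no direction; compounds that gave an IC50 in retests scored well above the rest, so higher reads as stronger inhibition. Of about 69,000 compounds tested this way, about 1,000 (1.5%) reached 50% or more in at least one test.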
Toxoplasma: 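Assay of Toxoplasma gondii numbers, read through their beta-galactosidase reporter with a colour substrate. Concentration: 10 µM. Higher reads as fewer parasites (inferred from which compounds were picked for retests). Size under these conditions: about 67,000 compounds, about 260 of them at 50% or above in at least one test.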
ClpP1P2: 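Protease assay of ClpP1P2, read by the AMC dye that it sets free. Target: ClpP1P2, Mycobacterium tuberculosis (UniProt P9WPC5 and UniProt P9WPC3). Concentration: 50 µM. Direction is inferred from only a few compounds that gave an IC50; most scored high, so higher reads as stronger inhibition. Most other retested compounds had strongly negative values. Size under these conditions: about 69,000 compounds, about 10 of them at 50% or above in at least one test.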
T. brucei: 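Whole-parasite assay of Trypanosoma brucei over 72 hours; the read-out is not stated. Compounds at 30 µM. Direction is inferred from retests: higher values go with stronger inhibition. Values scatter widely below zero; nearly all retest evidence comes from the higher of the two concentrations used. Size under these conditions: about 64,000 compounds, about 940 of them at 50% or above in at least one test.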
Pks13 thioesterase: 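Polyketide synthase Pks13, Mycobacterium tuberculosis (UniProt I6X8D2). Enzyme assay of the thioesterase domain of polyketide synthase 13; the read-out is not stated. Compounds at 30 µM. Higher reads as stronger inhibition (inferred from which compounds were picked for retests). Size under these conditions: about 67,000 compounds, about 300 of them at 50% or above in at least one test.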

The filed quantity is “Percent Effect” (%).
The record does not define 0% and 100%; most values in the screen are far below 50% and negative numbers occur (in some assays of this library far below -100).
Compounds were drawn at random from those tested, without regard to their results.
A dash means the value is not listed here; it may have been measured.

structure,Leishmania in macrophages,Toxoplasma,ClpP1P2,T. brucei,Pks13 thioesterase
Cc1noc(C2CCCN(C(=O)c3ccc(Br)o3)C2)n1 (centres unmarked),1.789%,0.1772%,5.414%,-32.43%,-11.3%
NC(=O)CSCC(=O)NC1(c2cccc(Br)c2)CC1,-17.96%,13.52%,0.4787%,-39.89%,19.21%
c1cnc(NCc2nnn3c2CN(Cc2ccco2)CCC3)nc1,-,-,2.378%,-,-10.6%
O=C(c1cnn(-c2ccccc2)n1)N1CCCC(n2cccn2)C1 (centres unmarked),13.23%,3.487%,-32.35%,20.45%,-10.62%
Cc1nc(NC(=O)C2CCCN(C(N)=O)C2)sc1-c1ccccc1 (centres unmarked),-29.18%,-3.055%,5.124%,57.12%,-5.66%
CN1CCCC1CNC(=O)c1nnn(-c2ccc(F)cc2)c1C1CC1 (centres unmarked),2.723%,-4.259%,6.294%,-55.24%,-20.21%
Cn1cccc1C(=O)N1CCc2c(CNS(C)(=O)=O)cncc2C1,-,-,-10.93%,-,-3.951%
O=C(NCCc1ccc(Cl)s1)NCc1nnc2n1CCC2,5.87%,-1.444%,1.439%,-46.58%,-0.2986%
CC(C)NC(=O)N1CCOC2(CCNCC2)C1,2.13%,-5.671%,0.353%,-10.65%,-28.78%
O=C1C(N2CC[C@@H](O)C2)CCCN1Cc1cccc(C(F)(F)F)c1 (some centres unmarked),-61.77%,6.002%,-14.79%,-35.54%,-14.88%
O=C(CCC(=O)c1cccs1)NC1(C(=O)NCC2CC2)CCCC1,12.63%,-1.561%,-0.9333%,-61.28%,-3.014%
CC(CN1CCOCC1)NC(=O)c1cccc2cn[nH]c12 (centres unmarked),18.62%,2.126%,6.504%,-34.42%,-24.69%
Cc1sc(CN)nc1-c1ccccc1,9.135%,-2.411%,-15.96%,-15.85%,-31.45%
COCCNC(=O)Cn1c(-c2cccc(F)c2)nc(C)c(CCO)c1=O,-14.08%,5.586%,7.439%,-7.539%,-3.805%
Cn1cc(CN2CCC3(CCCN3S(C)(=O)=O)CC2)cn1,-9.598%,-4.662%,-2.613%,-42.28%,-14.32%
Cc1cc(F)ccc1-c1cc(NCCO)nc2[nH]ccc12,16.89%,-4.869%,-17.97%,-9.112%,31.8%
N#Cc1ccc(C(=O)N2CCc3c(COCC4CC4)cncc3C2)cc1,-4.604%,2.154%,6.795%,-37.4%,-2.264%
O=C(O)C(F)(F)F.[H][C@@]12OCCN(Cc3ccc(F)cc3)[C@@]1([H])CC[C@@H]2OC,-5.571%,19.09%,-,-15.09%,-
CC(C)(C)C(=O)N1C[C@H](c2ccsc2)[C@H]2CN(C3CCCCC3)CC[C@H]21,-,-,-24.1%,-,-4.974%
O=C(COCC1CC1)Nc1ncn(CC(=O)N2CCCCCC2)n1,-2.408%,6.876%,-18.52%,-,-10.21%
CN(C)CC1CN(Cc2nnc(-c3ccccc3Cl)o2)CCO1 (centres unmarked),-2.836%,2.311%,4.879%,-22.56%,-10.72%
COc1ccc(C(=O)N2CCC(C3CCN(c4ncccn4)CC3)C2)o1 (centres unmarked),22.96%,-7.081%,-7.195%,12.12%,-43.79%
COCCN1CCC2(CC1)CC(Nc1ccc(C)nn1)CO2.O=C(O)C(F)(F)F (centres unmarked),25.29%,9.628%,-,-43.16%,-
O=C(CCn1c(C(F)(F)F)cc2cccnc21)N1CCOCC1,-,-,-12.73%,-,-0.07493%
CNC(=O)CCN1CCN(C(C)c2ccc(Cl)cc2)CC1 (centres unmarked),4.982%,-0.4428%,-9.401%,-58.58%,-0.6689%
O=C(O)C(F)(F)F.O=C(O)C(F)(F)F.O=C(O)C(F)(F)F.[H][C@@]12CCN(Cc3cccnc3)C[C@]1([H])[C@@H](CNc1ncccn1)OC2,3.594%,4.099%,-,-6.68%,-
CN(CCn1cccn1)S(=O)(=O)N1CCCC1c1ccco1 (centres unmarked),4.537%,-2.8%,-1.741%,-28.73%,-7.434%
O=C(c1[nH]nc2c1CCCC2)N1CCC(OCCN2CCCCC2)C1 (centres unmarked),4.053%,0.2241%,-12.26%,-22.25%,-5.038%
CC(C)c1nc(CN(C)CC2CCN(CCO)CC2)no1,28.47%,-1.039%,-15.29%,-14.1%,-10.8%
CNC(=O)c1cn[nH]c1C1CCCN1c1nc(C)cc(C)n1 (centres unmarked),7.884%,2.042%,-0.9777%,-0.5622%,11.58%
Fc1cccc(CN2CCOCC3(CCN(C4CCOCC4)C3)C2)c1.O=C(O)C(F)(F)F.O=C(O)C(F)(F)F (centres unmarked),11.82%,5.767%,-,30.04%,-
[H][C@@]12CCN(S(=O)(=O)c3ccc(C)cc3)C[C@]1(C(=O)NC)CCO2,18.07%,-7.336%,-,-17.46%,-
O=C(O)CCCC(=O)Nc1cnn(COc2ccc(F)cc2Cl)c1,-38.96%,18.64%,2.098%,-,13.69%
Cc1nc(NC(=O)C(C)N(C)Cc2ccc3c(c2)OCO3)sc1C (centres unmarked),11.52%,2.89%,-10.93%,-31.97%,7.148%
Cc1cc(N2CCCC2c2nccnc2C)ncn1 (centres unmarked),-1.568%,-10.25%,-8.264%,-23.12%,-5.114%
COc1ccc(COCC(O)CNC(=O)c2ccc(C#N)cc2)cc1 (centres unmarked),20.08%,-18.3%,-3.887%,-7.618%,-5.047%

For reference, 2 entries once more:

{"structure": "COCCNC(=O)Cn1c(-c2cccc(F)c2)nc(C)c(CCO)c1=O", "Leishmania in macrophages": -14.08, "Toxoplasma": 5.586, "ClpP1P2": 7.439, "T. brucei": -7.539, "Pks13 thioesterase": -3.805}
{"structure": "NC(=O)CSCC(=O)NC1(c2cccc(Br)c2)CC1", "Leishmania in macrophages": -17.96, "Toxoplasma": 13.52, "ClpP1P2": 0.4787, "T. brucei": -39.89, "Pks13 thioesterase": 19.21}